{
  "source": "paper PMC7862700",
  "note": "This is one part of the list. The source does not settle which construct or isoform was used.",
  "data": [
    {"biological_target": "T1, ETS1 (UniProt P14921)", "T1 sequence": "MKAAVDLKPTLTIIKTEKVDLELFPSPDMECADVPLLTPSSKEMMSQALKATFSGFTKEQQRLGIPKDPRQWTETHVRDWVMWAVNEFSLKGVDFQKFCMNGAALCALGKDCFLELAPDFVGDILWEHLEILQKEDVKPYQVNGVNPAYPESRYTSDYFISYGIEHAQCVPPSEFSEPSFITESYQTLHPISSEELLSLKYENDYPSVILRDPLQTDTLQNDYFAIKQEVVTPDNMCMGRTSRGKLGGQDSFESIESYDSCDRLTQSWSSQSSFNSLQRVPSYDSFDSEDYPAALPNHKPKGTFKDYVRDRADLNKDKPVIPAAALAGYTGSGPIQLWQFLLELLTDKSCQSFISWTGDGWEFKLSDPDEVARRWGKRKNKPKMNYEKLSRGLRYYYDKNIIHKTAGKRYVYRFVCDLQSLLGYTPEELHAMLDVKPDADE", "assay": "DAPPL (digital affinity profiling via proximity ligation, sequencing)", "conditions": "10 mM Tris-HCl pH 7.5, 50 mM NaCl, 1 mM DTT, 4% glycerol, room temperature, 30 min; GST-TFs on glutathione beads, 16-mer random dsDNA library, 0.1% …; high values mean tight binding; double strand, one strand shown; scale: fold enrichment (6-mer frequency, TF over GST control)", "values": [
      {"sequence": "AGTTTC", "binding signal": 1.26},
      {"sequence": "TAGTTA", "binding signal": 1.23},
      {"sequence": "TGTCAC", "binding signal": 1.27},
      {"sequence": "ATCTGG", "binding signal": 1.19},
      {"sequence": "GAAGCC", "binding signal": 1.04},
      {"sequence": "GGGTTT", "binding signal": 1.13},
      {"sequence": "AGTGCT", "binding signal": 1.4},
      {"sequence": "TTTCAC", "binding signal": 1.32},
      {"sequence": "TAACTT", "binding signal": 1.37},
      {"sequence": "AACACT", "binding signal": 1.29},
      {"sequence": "ATCCCG", "binding signal": 1.32},
      {"sequence": "GCTGCC", "binding signal": 1},
      {"sequence": "ACCCAA", "binding signal": 1.15},
      {"sequence": "TGGTAA", "binding signal": 1.25},
      {"sequence": "TGATTT", "binding signal": 1.23},
      {"sequence": "AGGTAA", "binding signal": 0.953},
      {"sequence": "GCAATA", "binding signal": 1.04},
      {"sequence": "AAGCTA", "binding signal": 1.2},
      {"sequence": "CTCACG", "binding signal": 1.35},
      {"sequence": "ACGCGG", "binding signal": 1.02},
      {"sequence": "ACAATG", "binding signal": 1.15},
      {"sequence": "CGTAAA", "binding signal": 1.01},
      {"sequence": "TGCAAT", "binding signal": 1.2},
      {"sequence": "CGCCGG", "binding signal": 1.09},
      {"sequence": "TTCTCT", "binding signal": 1.31},
      {"sequence": "AGTGTC", "binding signal": 0.973},
      {"sequence": "GTCTTG", "binding signal": 1.06},
      {"sequence": "ACATAA", "binding signal": 1.15},
      {"sequence": "GCTACT", "binding signal": 1.26},
      {"sequence": "CCGTCT", "binding signal": 1.34},
      {"sequence": "ACCTCC", "binding signal": 1.34},
      {"sequence": "CCAATT", "binding signal": 1.24},
      {"sequence": "CAGCAT", "binding signal": 0.927},
      {"sequence": "AGCTTA", "binding signal": 1.09},
      {"sequence": "AAACAC", "binding signal": 1.31},
      {"sequence": "CTCGTC", "binding signal": 1.43},
      {"sequence": "CTTGGC", "binding signal": 1.22},
      {"sequence": "TCCTCG", "binding signal": 1.39},
      {"sequence": "AGCGAT", "binding signal": 1.07},
      {"sequence": "ATTGGC", "binding signal": 1.16}
    ]}
  ]
}
